Data as given in PubChem BioAssay AID743454 (Peter MacCallum Cancer Centre, 2014)

Assay: 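Search for knock-downs that restore vorinostat killing in resistant colon cancer cells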 (primary screen)
Cell system: human HCT116-VR colon cancer cells, selected for vorinostat resistance
Knock-down reagent: siRNA pool against human genes, 40 nM siRNA pool
Time to read-out: vorinostat for 24 h, read-out about 72 h after transfection
Conditions: vorinostat at 2.5 µM final
Measured: 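Two measures, CellTiter-Fluor viability and luminescent caspase 3/7 activity, each as fold change against same-plate mock wells, mean of duplicates, then screen-wide robust z-score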
Scale: viability robust z-score: higher = more viable cells than screen typical; caspase robust z-score: higher = more caspase 3/7 activity than screen typical
Active means: 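a knock-down is a hit when classed RV1 or RV2 for lowered viability, or CA1 or CA2 for caspase activation; those lethal without drug were dropped; hits were retested singly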
Shown is one part, drawn at random, of about 18,000 reagents. Of all reagents, 450 (2.5%) are marked active. 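Single biological run; no consistent viability z cut-off exists, so the class columns, not z-scores, define the calls.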

| gene knocked down | viability hit class | caspase hit class | viability robust z-score | caspase robust z-score | Call |
| --- | --- | --- | --- | --- | --- |
| ZC3H12A | no change | no change | 0.49 | 0.53 | inactive |
| TRIM5 | no change | no change | 0.56 | -0.35 | inactive |
| FLVCR1 | no change | no change | -0.18 | -0.52 | inactive |
| TNNI3 | no change | no change | 0.84 | -0.55 | inactive |
| USP40 | no change | no change | -1.39 | 2.79 | inactive |
| CLPX | no change | no change | -0.37 | -0.58 | inactive |
| ZNF680 | no change | no change | -0.25 | 2.74 | inactive |
| HSPA1B | no change | no change | 0.08 | -0.84 | inactive |
| BEST3 | no change | no change | 0.43 | 2.42 | inactive |
| SHLD1 | no change | no change | 0.64 | -0.63 | inactive |
| STAP1 | no change | no change | 0.02 | -0.92 | inactive |
| GABARAPL1 | no change | no change | -1.15 | 0.58 | inactive |
| GLMP | no change | no change | 2.02 | -1.01 | inactive |
| BTBD6 | no change | no change | -0.25 | -0.31 | inactive |
| ARFGEF3 | no change | no change | -0.49 | -0.53 | inactive |
| PPP1CC | no change | no change | 0.21 | -0.32 | inactive |
| FBXO27 | no change | no change | -0.63 | 1.62 | inactive |
| BARX2 | no change | no change | -0.7 | 1.46 | inactive |
| PPP1R8 | no change | no change | 0.02 | 1.29 | inactive |
| MTMR1 | no change | no change | 0.62 | 1.88 | inactive |
| UTY | no change | no change | -1.48 | -0.64 | inactive |
| GOLGA7B | no change | no change | -0.91 | -0.38 | inactive |
| PHF14 | no change | no change | -0.84 | 2.44 | inactive |
| TMEM59 | no change | no change | 0.2 | -0.3 | inactive |
| NOP58 | RV2 (reduced viability) | no change | -3.37 | -0.44 | active |
| TOM1L2 | no change | no change | 0.64 | 1.03 | inactive |
| RPIA | no change | no change | 0.1 | -0.64 | inactive |
| FDPS | no change | no change | 0.14 | -0.74 | inactive |
| IGF2BP2 | no change | no change | -0.01 | 2.38 | inactive |
| NFATC4 | no change | no change | -0.93 | 3.34 | inactive |
| ELF4 | no change | no change | -1.98 | 3.58 | inactive |
| OR13J1 | no change | no change | -0.06 | 1.35 | inactive |
| FAM114A2 | no change | no change | -0.31 | -0.13 | inactive |
| STIM2 | no change | no change | -0.8 | 0.04 | inactive |
| MSANTD3 | no change | no change | -0.04 | -0.05 | inactive |
| CDK5R1 | no change | no change | -1.52 | 3.94 | inactive |
| C8orf76 | no change | no change | -0.07 | -0.14 | inactive |
| LETMD1 | no change | no change | 0.73 | 0.02 | inactive |
| EHD1 | no change | no change | -0.9 | 0.22 | inactive |

Active calls, among the entries above:
| gene knocked down | viability hit class | caspase hit class | viability robust z-score | caspase robust z-score | Call |
| --- | --- | --- | --- | --- | --- |
| NOP58 | RV2 (reduced viability) | no change | -3.37 | -0.44 | active |
